# According to patent publication US20150258059A1, “ANTIMICROBIAL AND RADIOPROTECTIVE COMPOUNDS” (BioDiem, Ltd, priority 2001, published 2015):
# At least one structure is not confirmed: it was looked up by name or label, or the drawing left a doubt.
# Assays:
# [1] = system: Conditional pathogenic enterobacteria gram-negative aerobic bacilli; type: cell-based; note: key: + sensitive strains; + moderately sensitive strains; − stable strains
# [2] = system: Corynebacterium diphtheriae B-670; experiment: Sensitivity of strains: suppression of growth; type: cell-based; conditions: Compound (1) 1.0%; antibiotics disc method
SMILES,Suppression of Growth (+/−) [1],Suppression of Growth (+/−) [2]
"Cc1onc(-c2ccccc2)c1C(=O)N[C@@H]1C(=O)N2[C@@H]1SC(C)(C)[C@@H]2C(=O)O [Antibiotic 8, oxacillin]",±,
"O=C(N[C@H](CO)[C@H](O)c1ccc([N+](=O)[O-])cc1)C(Cl)Cl [Antibiotic 7, levomicethin]",,±
